Assay results: paper doi:10.1101/2020.03.13.991679
Results are given in words; binding and its absence hold for the method and conditions named. In cells and extracts the contact can be indirect. Some binding calls cover weakened binding; strength is not graded here.

By UniProt entry, the sequences of proteins in these tests, tags left out.
UniProt P06492: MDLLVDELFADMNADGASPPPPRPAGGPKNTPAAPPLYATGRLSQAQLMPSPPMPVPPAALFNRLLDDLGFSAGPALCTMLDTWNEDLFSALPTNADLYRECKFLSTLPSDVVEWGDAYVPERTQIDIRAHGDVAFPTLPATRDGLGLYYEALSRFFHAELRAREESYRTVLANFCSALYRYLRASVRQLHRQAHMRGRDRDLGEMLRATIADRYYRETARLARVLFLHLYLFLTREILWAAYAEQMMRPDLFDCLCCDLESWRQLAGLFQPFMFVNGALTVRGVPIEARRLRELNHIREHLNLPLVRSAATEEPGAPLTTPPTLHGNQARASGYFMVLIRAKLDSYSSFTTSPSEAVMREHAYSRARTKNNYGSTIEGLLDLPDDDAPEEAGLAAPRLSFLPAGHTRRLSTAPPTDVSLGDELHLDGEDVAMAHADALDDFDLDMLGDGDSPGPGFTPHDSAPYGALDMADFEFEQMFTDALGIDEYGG

Target: HSV-1 viral protein 16 (VP16), FLAG-tagged (HSV-1) (UniProt P06492)
Assay: co-IP

B1: Host Cell Factor C1 Regulator 1 (HCFC1R1) (protein, UniProt Q9NWW0 1-138)
chain: MILQQPLQRGPQGGAQRLPRAALGVTWGLDASSPLRGAVPMSTKRRLEEEQEPLRKQFLSEENMATHFSQLSLHNDHPYCSPPMTFSPALPPLRSPCSELLLWRYPGSLIPEALRLLRLGDTPSPPYPATPAGDIMEL
- binding: binds
